In PubChem BioAssay (EPA / NIEHS):
The inconclusive results got no clear call from the source; some entries with a clear call stand among them for comparison. A potency beside an inconclusive call is a rough fit, not a confirmed value. Calls of active or inactive are those of the source. Rule for the calls: active = hit-call score of the fitted dose curve at least 0.9, where 1 is the maximum; inconclusive = response in the unintended direction; inactive = score below 0.9.

By UniProt entry, the sequences of proteins in these tests, tags left out. Where a name states a change or a piece, a line headed by the entry shows the natural chain unless it says otherwise.
UniProt P56817: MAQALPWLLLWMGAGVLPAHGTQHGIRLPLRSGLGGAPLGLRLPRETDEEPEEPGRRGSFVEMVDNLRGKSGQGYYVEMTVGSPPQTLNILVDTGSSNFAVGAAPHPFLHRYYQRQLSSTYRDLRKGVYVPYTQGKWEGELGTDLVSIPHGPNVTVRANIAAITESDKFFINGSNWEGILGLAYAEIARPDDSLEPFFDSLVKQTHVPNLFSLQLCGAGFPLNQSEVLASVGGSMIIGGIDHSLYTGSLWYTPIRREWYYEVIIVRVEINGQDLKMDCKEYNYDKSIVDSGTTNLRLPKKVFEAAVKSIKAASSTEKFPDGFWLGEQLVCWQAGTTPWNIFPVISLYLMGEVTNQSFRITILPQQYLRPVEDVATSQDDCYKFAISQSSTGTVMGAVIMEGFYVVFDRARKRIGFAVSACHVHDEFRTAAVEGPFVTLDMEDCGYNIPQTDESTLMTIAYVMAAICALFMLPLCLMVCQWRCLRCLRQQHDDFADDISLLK

Target: human Beta-secretase (BACE), BACE1 (gene 23621) (UniProt P56817)
Assay: NVS_ENZ_hBACE: NovaScreen (NVS) Enzymatic Assay for human Beta-secretase (BACE) (AID 2283140);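 note: hits are inhibitors that reduce fluorescent substrate signal versus DMSO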
Procedure: NVS_ENZ_hBACE is a biochemical, single-readout assay that uses extracted gene-proteins from SF9 in a cell-free assay. Measurements were taken 1 hour after chemical dosing in a 96-well plate.NVS_ENZ_hBACE is one of one assay component(s) measured or calculated from the NVS_ENZ_hBACE assay. It is designed to make measurements of enzyme activity, a form of enzyme reporter, as detected with fluorescence intensity signals by Fluorescence technology.Data from the assay component NVS_ENZ_hBACE was analyzed into 1 assay endpoint. This assay endpoint, NVS_ENZ_hBACE, was analyzed in the positive analysis fitting direction relative to DMSO as the negative control and baseline of activity. Using a type of enzyme reporter, loss-of-signal activity can be used to understand changes in the enzymatic activity as they relate to the gene BACE1. Furthermore, this assay endpoint can be referred to as a primary readout, because […]. To generalize the intended target to other relatable targets, this assay endpoint is annotated to the protease intended target family, where the subfamily is aspartate protease.
Binding assays used specific radioligands (tritiated, iodinated) with non-radioactive competitive displacement ligands in agonist or antagonist protocols (as indicated) and various reference compounds and inhibitors to titrate specific binding to receptors and transporters. Most enzyme assays (CYPs, kinases, phosphatases, proteases, HDACs) used recombinant protein and specific substrates (fluorescence mostly, some colorimetric and radioactive) and inhibitors, followed by a biochemical separation of substrate and product. All assays for the biochemical HTS were initially run in duplicate at a single concentration (10 uM for CYP450 assays and 25 uM for all others). […] Each assay was run with positive and negative controls, and concurrent controls on every plate. The follow-up (secondary) screen tested active chemical-pairs in concentration series, as well as a few additional assays not tested in the primary screen, some selected negative inactives, and several cases re-run in the concentration series for confirmatory purposes.

| SMILES | AC50 | outcome |
| --- | --- | --- |
| CC(C)C(=O)Nc1ccc([N+](=O)[O-])c(C(F)(F)F)c1 | inconclusive: 0.1 µM | – |
| CCC(C)CO (centres undefined) | – | inactive |
| CCCCOC(=O)c1ccc(O)cc1 | – | inactive |
| C[C@]12CC[C@@H]3c4ccc(O)cc4C[C@@H](CCCCCCCCCS(=O)CCCC(F)(F)C(F)(F)F)[C@H]3[C@@H]1CC[C@@H]2O (some centres undefined) | – | inactive |
| O=C(c1ccc(O)cc1O)c1ccc(O)cc1O | – | inactive |
| CCCCOC(=O)C(C)Oc1ccc(Oc2ccc(C(F)(F)F)cn2)cc1 (centres undefined) | active: 25 µM | – |
| CCN(CC)C(=O)c1cc(S(=O)(=O)Cc2ccccc2)c(N2CCC(c3ccccc3)CC2)cc1N(CC)CCN(C)C | inconclusive: 23.4 µM | – |
| CC[C@H](NC(=O)c1cc(F)ccc1NS(=O)(=O)c1cccc2cccnc12)c1ccccc1 | inconclusive: 0.202 µM | – |
| CC(C)(O)CCc1ccccc1 | inconclusive: 25 µM | – |
| C/C=C\C/C=C/CCCCCCCCOC(C)=O | inconclusive: 45 µM | – |
| c1ccc2c(c1)Cc1ccccc1-2 | – | inactive |
| CCOC(=O)/C=C\C(=O)OCC | inconclusive: 25 µM | – |
| CC(=O)OC(C)C | inconclusive: 25 µM | – |
| CCOC(=O)O[C@H](C)OC(=O)c1ccc2c(c1)cc(C(=O)NC1CCN(C(C)C)CC1)n2Cc1cc(-c2ccc(Cl)s2)on1 | active: 0.447 µM | – |

As entered above.
CCCCOC(=O)c1ccc(O)cc1 – outcome: inactive
O=C(c1ccc(O)cc1O)c1ccc(O)cc1O – outcome: inactive
